# Source: the supplement of paper PMC7666118
# Amino acid sequences for entries named in this document (tags omitted). A change or cut given only in a name is not applied to a line headed by its entry.
# UniProt Q13144, whole entry: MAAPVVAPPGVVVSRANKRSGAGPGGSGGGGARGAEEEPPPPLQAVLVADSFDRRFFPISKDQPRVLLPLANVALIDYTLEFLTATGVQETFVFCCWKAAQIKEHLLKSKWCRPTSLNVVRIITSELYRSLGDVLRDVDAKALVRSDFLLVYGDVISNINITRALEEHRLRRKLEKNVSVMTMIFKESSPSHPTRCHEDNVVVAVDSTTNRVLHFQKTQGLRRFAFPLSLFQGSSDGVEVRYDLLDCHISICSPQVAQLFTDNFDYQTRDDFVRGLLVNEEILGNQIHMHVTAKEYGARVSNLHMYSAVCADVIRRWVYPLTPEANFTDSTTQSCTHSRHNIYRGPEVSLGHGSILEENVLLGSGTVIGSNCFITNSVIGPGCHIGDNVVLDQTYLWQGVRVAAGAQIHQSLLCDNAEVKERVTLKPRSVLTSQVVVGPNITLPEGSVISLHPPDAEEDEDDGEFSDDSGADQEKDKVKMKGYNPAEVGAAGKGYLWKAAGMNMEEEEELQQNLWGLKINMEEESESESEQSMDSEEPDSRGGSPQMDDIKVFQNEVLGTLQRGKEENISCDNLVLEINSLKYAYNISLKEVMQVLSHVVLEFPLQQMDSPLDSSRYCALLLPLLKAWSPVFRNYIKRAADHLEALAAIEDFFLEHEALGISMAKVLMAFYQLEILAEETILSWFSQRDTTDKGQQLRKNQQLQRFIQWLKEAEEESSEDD
# UniProt P09104, whole entry: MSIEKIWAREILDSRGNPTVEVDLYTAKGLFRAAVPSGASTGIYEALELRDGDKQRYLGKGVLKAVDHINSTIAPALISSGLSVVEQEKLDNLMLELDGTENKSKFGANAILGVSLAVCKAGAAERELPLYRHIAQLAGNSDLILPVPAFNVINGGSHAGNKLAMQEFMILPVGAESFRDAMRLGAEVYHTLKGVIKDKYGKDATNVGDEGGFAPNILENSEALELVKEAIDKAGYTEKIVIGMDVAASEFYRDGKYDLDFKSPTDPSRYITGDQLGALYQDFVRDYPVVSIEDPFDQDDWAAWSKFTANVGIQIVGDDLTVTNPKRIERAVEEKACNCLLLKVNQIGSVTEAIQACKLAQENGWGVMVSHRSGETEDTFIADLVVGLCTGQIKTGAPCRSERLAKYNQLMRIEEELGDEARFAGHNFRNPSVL
# UniProt O14641: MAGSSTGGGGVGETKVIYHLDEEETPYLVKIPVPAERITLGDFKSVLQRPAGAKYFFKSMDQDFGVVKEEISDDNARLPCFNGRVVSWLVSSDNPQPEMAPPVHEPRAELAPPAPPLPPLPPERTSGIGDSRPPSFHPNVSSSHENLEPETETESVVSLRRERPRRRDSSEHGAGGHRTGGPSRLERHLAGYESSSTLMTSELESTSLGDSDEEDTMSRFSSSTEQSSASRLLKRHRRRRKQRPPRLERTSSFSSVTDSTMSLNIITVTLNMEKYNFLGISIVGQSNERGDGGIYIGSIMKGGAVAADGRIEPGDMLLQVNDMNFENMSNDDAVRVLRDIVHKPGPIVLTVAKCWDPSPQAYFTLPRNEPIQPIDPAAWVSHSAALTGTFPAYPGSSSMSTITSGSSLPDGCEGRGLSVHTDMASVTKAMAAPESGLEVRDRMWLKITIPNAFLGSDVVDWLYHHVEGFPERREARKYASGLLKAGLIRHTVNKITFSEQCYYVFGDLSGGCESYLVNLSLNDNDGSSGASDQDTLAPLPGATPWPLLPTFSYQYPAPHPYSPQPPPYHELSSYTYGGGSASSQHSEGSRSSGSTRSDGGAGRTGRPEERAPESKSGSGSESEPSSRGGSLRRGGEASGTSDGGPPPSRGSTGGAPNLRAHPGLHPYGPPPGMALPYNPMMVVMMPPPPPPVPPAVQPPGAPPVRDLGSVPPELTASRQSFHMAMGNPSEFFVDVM
# UniProt Q9UM22: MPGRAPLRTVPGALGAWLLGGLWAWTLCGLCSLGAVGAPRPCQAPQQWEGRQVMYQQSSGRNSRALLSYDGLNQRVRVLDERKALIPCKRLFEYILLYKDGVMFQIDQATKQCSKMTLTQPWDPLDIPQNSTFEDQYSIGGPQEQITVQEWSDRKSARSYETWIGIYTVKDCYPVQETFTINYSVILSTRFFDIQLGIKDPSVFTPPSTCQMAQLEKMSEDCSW
# UniProt Q99848: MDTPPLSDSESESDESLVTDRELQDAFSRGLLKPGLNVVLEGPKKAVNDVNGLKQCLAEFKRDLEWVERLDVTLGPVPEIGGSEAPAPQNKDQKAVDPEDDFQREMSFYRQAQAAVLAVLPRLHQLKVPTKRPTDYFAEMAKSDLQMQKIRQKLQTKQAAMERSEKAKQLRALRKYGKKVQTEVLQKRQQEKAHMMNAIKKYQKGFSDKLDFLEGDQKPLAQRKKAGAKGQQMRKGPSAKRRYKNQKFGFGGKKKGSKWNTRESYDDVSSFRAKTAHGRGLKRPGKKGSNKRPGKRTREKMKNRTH
# UniProt Q96BY6: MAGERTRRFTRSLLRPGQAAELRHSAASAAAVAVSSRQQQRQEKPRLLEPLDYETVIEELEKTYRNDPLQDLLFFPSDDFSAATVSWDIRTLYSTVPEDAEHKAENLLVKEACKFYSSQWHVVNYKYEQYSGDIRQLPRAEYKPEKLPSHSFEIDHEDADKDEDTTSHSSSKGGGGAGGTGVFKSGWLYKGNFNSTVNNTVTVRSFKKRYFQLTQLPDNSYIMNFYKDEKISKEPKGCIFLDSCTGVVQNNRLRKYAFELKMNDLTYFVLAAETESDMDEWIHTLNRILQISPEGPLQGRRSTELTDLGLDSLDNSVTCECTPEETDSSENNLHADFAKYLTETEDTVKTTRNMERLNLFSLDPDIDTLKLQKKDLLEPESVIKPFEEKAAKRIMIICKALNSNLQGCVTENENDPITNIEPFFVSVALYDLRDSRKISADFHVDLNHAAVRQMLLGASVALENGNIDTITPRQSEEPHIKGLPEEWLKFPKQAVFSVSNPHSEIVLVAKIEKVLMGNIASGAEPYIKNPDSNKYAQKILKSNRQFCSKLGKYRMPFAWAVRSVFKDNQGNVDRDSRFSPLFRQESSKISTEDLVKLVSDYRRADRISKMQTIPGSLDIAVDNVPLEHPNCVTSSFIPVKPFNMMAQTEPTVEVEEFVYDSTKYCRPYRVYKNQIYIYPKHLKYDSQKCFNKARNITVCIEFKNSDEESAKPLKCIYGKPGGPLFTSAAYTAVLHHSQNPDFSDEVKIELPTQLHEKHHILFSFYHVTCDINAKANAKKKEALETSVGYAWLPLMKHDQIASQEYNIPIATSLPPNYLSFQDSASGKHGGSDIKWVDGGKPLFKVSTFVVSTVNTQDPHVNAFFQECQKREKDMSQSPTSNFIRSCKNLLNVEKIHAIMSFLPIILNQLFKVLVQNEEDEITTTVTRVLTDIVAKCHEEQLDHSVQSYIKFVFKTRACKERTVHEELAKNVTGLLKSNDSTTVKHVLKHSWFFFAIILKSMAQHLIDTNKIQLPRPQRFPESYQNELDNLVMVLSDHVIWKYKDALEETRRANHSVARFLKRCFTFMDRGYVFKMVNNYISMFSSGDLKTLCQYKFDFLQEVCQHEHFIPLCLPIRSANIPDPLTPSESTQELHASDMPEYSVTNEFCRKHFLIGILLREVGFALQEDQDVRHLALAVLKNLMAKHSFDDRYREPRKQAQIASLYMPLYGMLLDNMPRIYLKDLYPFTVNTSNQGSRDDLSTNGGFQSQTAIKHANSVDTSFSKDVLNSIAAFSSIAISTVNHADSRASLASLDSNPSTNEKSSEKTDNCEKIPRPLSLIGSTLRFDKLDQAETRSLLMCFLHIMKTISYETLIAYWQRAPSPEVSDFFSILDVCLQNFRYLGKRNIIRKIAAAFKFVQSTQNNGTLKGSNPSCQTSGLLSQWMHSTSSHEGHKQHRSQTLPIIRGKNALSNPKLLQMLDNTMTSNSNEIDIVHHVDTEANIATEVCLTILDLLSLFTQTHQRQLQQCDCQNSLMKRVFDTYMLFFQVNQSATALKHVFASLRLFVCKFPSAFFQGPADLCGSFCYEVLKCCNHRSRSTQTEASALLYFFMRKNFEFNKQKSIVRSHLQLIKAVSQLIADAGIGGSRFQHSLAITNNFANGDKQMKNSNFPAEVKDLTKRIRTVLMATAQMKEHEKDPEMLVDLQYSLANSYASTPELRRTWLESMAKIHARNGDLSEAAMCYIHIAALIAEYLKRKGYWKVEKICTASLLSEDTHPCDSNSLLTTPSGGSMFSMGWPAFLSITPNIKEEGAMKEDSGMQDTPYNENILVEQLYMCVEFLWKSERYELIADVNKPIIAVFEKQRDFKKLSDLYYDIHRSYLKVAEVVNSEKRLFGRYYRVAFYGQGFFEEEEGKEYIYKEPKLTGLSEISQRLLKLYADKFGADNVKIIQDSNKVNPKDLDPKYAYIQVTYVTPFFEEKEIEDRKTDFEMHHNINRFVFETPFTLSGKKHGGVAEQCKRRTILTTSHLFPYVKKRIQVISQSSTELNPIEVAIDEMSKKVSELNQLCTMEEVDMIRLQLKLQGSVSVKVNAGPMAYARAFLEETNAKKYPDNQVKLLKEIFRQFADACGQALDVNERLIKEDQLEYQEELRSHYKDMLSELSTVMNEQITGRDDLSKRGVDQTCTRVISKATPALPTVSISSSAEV
# UniProt Q9Y2L1: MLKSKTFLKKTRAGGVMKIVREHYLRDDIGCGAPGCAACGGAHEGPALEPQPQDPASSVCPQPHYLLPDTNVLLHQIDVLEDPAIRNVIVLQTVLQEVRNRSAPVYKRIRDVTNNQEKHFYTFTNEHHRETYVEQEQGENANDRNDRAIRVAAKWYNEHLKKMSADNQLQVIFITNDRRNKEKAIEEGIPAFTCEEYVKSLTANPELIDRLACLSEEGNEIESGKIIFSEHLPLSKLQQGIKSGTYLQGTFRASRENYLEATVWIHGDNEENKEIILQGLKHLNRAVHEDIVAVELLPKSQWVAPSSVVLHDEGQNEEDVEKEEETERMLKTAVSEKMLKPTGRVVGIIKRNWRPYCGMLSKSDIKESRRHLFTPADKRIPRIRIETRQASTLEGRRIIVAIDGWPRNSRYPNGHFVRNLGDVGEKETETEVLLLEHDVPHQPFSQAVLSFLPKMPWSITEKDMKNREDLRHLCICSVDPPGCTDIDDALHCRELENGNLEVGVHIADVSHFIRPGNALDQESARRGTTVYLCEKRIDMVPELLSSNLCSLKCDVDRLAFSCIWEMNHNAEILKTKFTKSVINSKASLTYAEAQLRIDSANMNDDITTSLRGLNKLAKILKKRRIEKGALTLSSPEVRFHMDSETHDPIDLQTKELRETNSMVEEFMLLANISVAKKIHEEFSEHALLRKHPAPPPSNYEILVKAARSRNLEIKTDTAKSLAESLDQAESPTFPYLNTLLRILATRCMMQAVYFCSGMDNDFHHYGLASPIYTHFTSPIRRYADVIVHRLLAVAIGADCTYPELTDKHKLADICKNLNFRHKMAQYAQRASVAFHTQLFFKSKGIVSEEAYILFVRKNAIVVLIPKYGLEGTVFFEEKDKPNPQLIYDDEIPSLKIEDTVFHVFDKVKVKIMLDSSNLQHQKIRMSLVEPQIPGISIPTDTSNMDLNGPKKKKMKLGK
# UniProt O60869: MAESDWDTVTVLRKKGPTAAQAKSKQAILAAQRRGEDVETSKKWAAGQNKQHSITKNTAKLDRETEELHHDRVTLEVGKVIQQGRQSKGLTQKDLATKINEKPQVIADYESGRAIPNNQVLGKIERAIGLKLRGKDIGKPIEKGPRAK
# UniProt Q86TI2: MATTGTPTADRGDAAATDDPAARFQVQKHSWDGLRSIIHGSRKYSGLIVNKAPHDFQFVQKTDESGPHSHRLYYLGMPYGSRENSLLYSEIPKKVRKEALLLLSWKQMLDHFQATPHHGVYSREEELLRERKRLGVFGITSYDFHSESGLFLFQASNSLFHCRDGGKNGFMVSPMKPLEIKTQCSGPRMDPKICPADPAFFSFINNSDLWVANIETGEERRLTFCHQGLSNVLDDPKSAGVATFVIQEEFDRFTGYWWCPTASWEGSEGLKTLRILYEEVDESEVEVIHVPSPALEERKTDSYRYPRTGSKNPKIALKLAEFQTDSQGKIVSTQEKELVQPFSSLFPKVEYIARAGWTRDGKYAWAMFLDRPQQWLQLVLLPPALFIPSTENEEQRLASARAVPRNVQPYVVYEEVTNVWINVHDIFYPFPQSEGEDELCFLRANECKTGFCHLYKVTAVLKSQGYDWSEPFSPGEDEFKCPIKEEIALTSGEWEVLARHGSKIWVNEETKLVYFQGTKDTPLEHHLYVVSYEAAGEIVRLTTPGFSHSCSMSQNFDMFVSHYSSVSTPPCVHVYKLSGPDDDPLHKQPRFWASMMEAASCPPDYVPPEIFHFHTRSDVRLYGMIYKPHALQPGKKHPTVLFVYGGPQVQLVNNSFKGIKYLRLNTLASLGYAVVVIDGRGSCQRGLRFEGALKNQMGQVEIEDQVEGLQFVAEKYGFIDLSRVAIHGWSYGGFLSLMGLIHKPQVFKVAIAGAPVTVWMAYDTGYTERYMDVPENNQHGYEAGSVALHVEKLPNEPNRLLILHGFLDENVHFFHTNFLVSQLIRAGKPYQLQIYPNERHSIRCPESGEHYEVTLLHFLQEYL
# The other results are listed elsewhere or left out.
# Compound: COc1ccc(Cn2ccc3ccc(C(=O)NO)cc32)cc1
# Test: dose-dependent thermal stabilisation call (2D-TPP, DLPTP, 10% FDR) (binary (1 = stabilised)); higher = stabilised by the compound
# Conditions: system: HL-60 intact cells; concentration range 0.04-10 µM
row,Target,dose-dependent thermal stabilisation call
1,DNAJC2 (UniProt Q99543),inactive: 0
2,EPRS (UniProt P07814),inactive: 0
3,EHD4 (UniProt Q9H223),inactive: 0
4,ECHS1 (UniProt P30084),inactive: 0
5,DSG1 (UniProt Q02413),inactive: 0
6,EPM2AIP1 (UniProt Q7L775),inactive: 0
7,DPYSL2 (UniProt Q16555),inactive: 0
8,ENDOD1 (UniProt O94919),inactive: 0
9,ENG (UniProt P17813),inactive: 0
10,DPP8 (UniProt Q6V1X1),inactive: 0
11,DNAJC6 (UniProt O75061),inactive: 0
12,EIF4G1 (UniProt Q04637),inactive: 0
13,DSCC1 (UniProt Q9BVC3),inactive: 0
14,EIF2B2 (UniProt P49770),inactive: 0
15,DNAJB1 (UniProt P25685),inactive: 0
16,EML3 (UniProt Q32P44),inactive: 0
17,EIF2B5 (UniProt Q13144),inactive: 0
18,DMXL2 (UniProt Q8TDJ6),inactive: 0
19,DOK1 (UniProt Q99704),inactive: 0
20,EPHX1 (UniProt P07099),active: 1
21,ENTPD4 (UniProt Q9Y227),inactive: 0
22,ENO2 (UniProt P09104),inactive: 0
23,ENAH (UniProt Q8N8S7),inactive: 0
24,EFTUD1 (UniProt Q7Z2Z2),inactive: 0
25,ELP4 (UniProt Q96EB1),inactive: 0

row,Target,dose-dependent thermal stabilisation call
1,ERAP2 (UniProt Q6P179),inactive: 0
2,EIF1AD (UniProt Q8N9N8),inactive: 0
3,DUS4L (UniProt O95620),inactive: 0
4,DIAPH2 (UniProt O60879),inactive: 0
5,EIF3G (UniProt O75821),inactive: 0
6,EEFSEC (UniProt P57772),inactive: 0
7,EPN1 (UniProt Q9Y6I3),inactive: 0
8,DLG1 (UniProt Q12959),inactive: 0
9,ELP3 (UniProt Q9H9T3),inactive: 0
10,DVL2 (UniProt O14641),inactive: 0
11,EPDR1 (UniProt Q9UM22),inactive: 0
12,DNAJC13 (UniProt O75165),inactive: 0
13,DNAJA3 (UniProt Q96EY1),inactive: 0
14,EHD1 (UniProt Q9H4M9),inactive: 0
15,EIF2A (UniProt Q9BY44),inactive: 0
16,EIF5 (UniProt P55010),inactive: 0
17,EFCAB4B (UniProt Q9BSW2),inactive: 0
18,EIF2S2 (UniProt P20042),inactive: 0
19,DKC1 (UniProt O60832),inactive: 0
20,DTNBP1 (UniProt Q96EV8),inactive: 0
21,DNAJA1 (UniProt P31689),inactive: 0
22,ELAC2 (UniProt Q9BQ52),inactive: 0
23,ECHDC1 (UniProt Q9NTX5),inactive: 0
24,DNAJB11 (UniProt Q9UBS4),inactive: 0
25,EMILIN2 (UniProt Q9BXX0),inactive: 0

# Part of the list above, as tab-separated lines:
row	Target	dose-dependent thermal stabilisation call
14	EHD1 (UniProt Q9H4M9)	inactive: 0
15	EIF2A (UniProt Q9BY44)	inactive: 0
16	EIF5 (UniProt P55010)	inactive: 0

# The results go on.

row,Target,dose-dependent thermal stabilisation call
1,EI24 (UniProt O14681),inactive: 0
2,DLAT (UniProt P10515),inactive: 0
3,EBNA1BP2 (UniProt Q99848),inactive: 0
4,DNAJC21 (UniProt Q5F1R6),inactive: 0
5,DOCK10 (UniProt Q96BY6),inactive: 0
6,DIS3 (UniProt Q9Y2L1),inactive: 0
7,DLST (UniProt P36957),inactive: 0
8,DST (UniProt Q03001),inactive: 0
9,EIF5A2 (UniProt Q9GZV4),inactive: 0
10,ERAP1 (UniProt Q9NZ08),inactive: 0
11,DYRK1A (UniProt Q13627),inactive: 0
12,DUS1L (UniProt Q6P1R4),inactive: 0
13,DNAJB6 (UniProt O75190),inactive: 0
14,DTL (UniProt Q9NZJ0),inactive: 0
15,ERCC6L (UniProt Q2NKX8),inactive: 0
16,EARS2 (UniProt Q5JPH6),inactive: 0
17,DICER1 (UniProt Q9UPY3),inactive: 0
18,EDF1 (UniProt O60869),inactive: 0
19,DPM1 (UniProt O60762),inactive: 0
20,DPY19L3 (UniProt Q6ZPD9),inactive: 0
21,ESF1 (UniProt Q9H501),inactive: 0
22,DPP9 (UniProt Q86TI2),inactive: 0
23,DLGAP5 (UniProt Q15398),inactive: 0
24,DIP2A (UniProt Q14689),inactive: 0
25,DNMT3A (UniProt Q9Y6K1),inactive: 0
